Publication PMC7862700
Only a part is listed here, and it is no random draw. At the low end of the ranking the order means little.

Assays:
Experiment in all cases: DAPPL (digital affinity profiling via proximity ligation, sequencing)
Details in all cases: 10 mM Tris-HCl pH 7.5, 50 mM NaCl, 1 mM DTT, 4% glycerol, room temperature, 30 min; GST-TFs on glutathione beads, 16-mer random dsDNA library, 0.1% …; high values mean tight binding; double strand, one strand shown; scale: fold enrichment (6-mer frequency, TF over GST control)
ELK1 = molecular target: T1, ELK1 (UniProt P19419)
T1 sequence: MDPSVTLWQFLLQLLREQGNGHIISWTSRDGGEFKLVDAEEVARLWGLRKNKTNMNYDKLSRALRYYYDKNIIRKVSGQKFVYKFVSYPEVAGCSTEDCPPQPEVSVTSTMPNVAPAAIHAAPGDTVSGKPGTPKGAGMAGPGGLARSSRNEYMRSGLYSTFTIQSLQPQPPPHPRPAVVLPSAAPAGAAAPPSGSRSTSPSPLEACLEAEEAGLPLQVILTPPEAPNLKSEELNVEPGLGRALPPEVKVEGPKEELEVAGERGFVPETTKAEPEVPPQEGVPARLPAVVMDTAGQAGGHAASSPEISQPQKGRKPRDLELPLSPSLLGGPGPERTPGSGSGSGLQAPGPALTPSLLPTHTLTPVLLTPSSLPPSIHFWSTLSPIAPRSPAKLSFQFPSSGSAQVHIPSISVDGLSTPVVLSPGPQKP

ELK3 = molecular target: T2, ELK3 (UniProt P41970)
T2 sequence: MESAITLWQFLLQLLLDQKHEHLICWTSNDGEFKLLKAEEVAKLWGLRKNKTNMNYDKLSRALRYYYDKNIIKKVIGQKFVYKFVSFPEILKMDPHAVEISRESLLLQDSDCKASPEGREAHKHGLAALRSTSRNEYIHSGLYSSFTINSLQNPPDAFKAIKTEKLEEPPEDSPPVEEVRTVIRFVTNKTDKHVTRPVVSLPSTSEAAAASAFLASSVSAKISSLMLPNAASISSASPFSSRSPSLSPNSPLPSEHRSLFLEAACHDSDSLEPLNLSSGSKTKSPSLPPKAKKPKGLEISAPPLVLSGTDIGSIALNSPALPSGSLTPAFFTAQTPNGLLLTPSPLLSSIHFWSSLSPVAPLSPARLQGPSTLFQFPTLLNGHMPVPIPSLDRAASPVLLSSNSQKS

SPIC = molecular target: T3, SPIC (UniProt Q8N5J4)
T3 sequence: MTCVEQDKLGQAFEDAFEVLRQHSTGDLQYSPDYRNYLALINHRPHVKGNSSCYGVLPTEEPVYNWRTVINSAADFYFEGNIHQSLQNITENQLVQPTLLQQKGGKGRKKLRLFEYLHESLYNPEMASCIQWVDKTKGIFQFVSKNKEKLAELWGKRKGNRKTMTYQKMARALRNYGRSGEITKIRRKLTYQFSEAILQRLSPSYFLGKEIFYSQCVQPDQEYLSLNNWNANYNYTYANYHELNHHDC

ETS2 = molecular target: T4, ETS2 (UniProt P15036)
T4 sequence: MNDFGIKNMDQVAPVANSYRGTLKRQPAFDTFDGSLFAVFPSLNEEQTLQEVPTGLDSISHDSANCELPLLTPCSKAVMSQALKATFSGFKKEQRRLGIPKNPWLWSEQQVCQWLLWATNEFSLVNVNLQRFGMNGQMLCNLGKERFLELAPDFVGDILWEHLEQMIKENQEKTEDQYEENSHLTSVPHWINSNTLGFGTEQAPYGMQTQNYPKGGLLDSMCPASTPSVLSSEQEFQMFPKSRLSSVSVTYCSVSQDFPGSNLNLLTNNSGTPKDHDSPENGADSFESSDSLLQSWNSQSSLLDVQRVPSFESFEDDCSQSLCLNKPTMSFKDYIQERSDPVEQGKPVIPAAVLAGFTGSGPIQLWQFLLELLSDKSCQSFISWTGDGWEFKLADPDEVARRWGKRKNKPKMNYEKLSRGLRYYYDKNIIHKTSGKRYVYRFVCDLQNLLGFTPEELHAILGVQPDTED

ETV3 = molecular target: T5, ETV3 (UniProt P41162-2)
T5 sequence: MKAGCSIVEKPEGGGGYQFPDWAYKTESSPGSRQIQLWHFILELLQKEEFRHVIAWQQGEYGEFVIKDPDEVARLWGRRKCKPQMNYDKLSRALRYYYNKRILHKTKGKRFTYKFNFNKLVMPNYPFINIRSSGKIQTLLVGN

With ACCAGT the binding signal (ELK1) was 0.49, the binding signal (ELK3) was 0.466 and the binding signal (SPIC) was 0.453. The binding signal (ETS2) was 0.471 and the binding signal (ETV3) was 0.468.

TCGTGA gave a binding signal (ELK1) of 0.344, a binding signal (ELK3) of 0.31 and a binding signal (SPIC) of 0.298. It also gave a binding signal (ETS2) of 0.34 and a binding signal (ETV3) of 0.333.

With CGTGTA the binding signal (ELK1) was 0.625, the binding signal (ELK3) was 0.676 and the binding signal (SPIC) was 0.611. For the same sequence, the binding signal (ETS2) was 0.652 and the binding signal (ETV3) was 0.654.

CACGGG showed a binding signal (ELK1) of 0.785, a binding signal (ELK3) of 0.817 and a binding signal (SPIC) of 0.782. The binding signal (ETS2) was 0.808 and the binding signal (ETV3) was 0.749.

Work on CGGGTG yielded a binding signal (ELK1) of 0.72, a binding signal (ELK3) of 0.676 and a binding signal (SPIC) of 0.704. It also gave a binding signal (ETS2) of 0.654 and a binding signal (ETV3) of 0.647.

CGGTAC showed a binding signal (ELK1) of 0.921, a binding signal (ELK3) of 0.889 and a binding signal (SPIC) of 0.947. For the same sequence, the binding signal (ETS2) was 0.978 and the binding signal (ETV3) was 0.942.

Sequence AAGAGC has a binding signal (ELK1) of 0.869, a binding signal (ELK3) of 0.877 and a binding signal (SPIC) of 0.947. It also gave a binding signal (ETS2) of 0.835 and a binding signal (ETV3) of 0.884.

With AGAAAG the binding signal (ELK1) was 0.845, the binding signal (ELK3) was 0.835 and the binding signal (SPIC) was 0.905. It also gave a binding signal (ETS2) of 0.902 and a binding signal (ETV3) of 0.865.

Sequence AGTGTG has a binding signal (ELK1) of 0.64, a binding signal (ELK3) of 0.641 and a binding signal (SPIC) of 0.767. For the same sequence, the binding signal (ETS2) was 0.692 and the binding signal (ETV3) was 0.665.

For GTCAGA, the binding signal (ELK1) was 0.663, the binding signal (ELK3) was 0.566 and the binding signal (SPIC) was 0.664. It also gave a binding signal (ETS2) of 0.612 and a binding signal (ETV3) of 0.63.

CTCGGA showed a binding signal (ELK1) of 0.882, a binding signal (ELK3) of 0.801 and a binding signal (SPIC) of 0.813. The binding signal (ETS2) was 0.803 and the binding signal (ETV3) was 0.832.

Work on GTTGAG yielded a binding signal (ELK1) of 0.625, a binding signal (ELK3) of 0.649 and a binding signal (SPIC) of 0.729. The binding signal (ETS2) was 0.66 and the binding signal (ETV3) was 0.679.

CACGTC showed a binding signal (ELK1) of 0.889, a binding signal (ELK3) of 0.828 and a binding signal (SPIC) of 0.874. For the same sequence, the binding signal (ETS2) was 0.873 and the binding signal (ETV3) was 0.844.

GTTGGG gave a binding signal (ELK1) of 0.673, a binding signal (ELK3) of 0.758 and a binding signal (SPIC) of 0.784. The binding signal (ETS2) was 0.688 and the binding signal (ETV3) was 0.601.

Work on CCCGAG yielded a binding signal (ELK1) of 0.884, a binding signal (ELK3) of 0.805 and a binding signal (SPIC) of 0.663. It also gave a binding signal (ETS2) of 0.86 and a binding signal (ETV3) of 0.786.

Sequence AAGGTG has a binding signal (ELK1) of 0.947, a binding signal (ELK3) of 0.783 and a binding signal (SPIC) of 0.928. The binding signal (ETS2) was 0.922 and the binding signal (ETV3) was 0.88.

CGGTAA gave a binding signal (ELK1) of 0.975, a binding signal (ELK3) of 0.866 and a binding signal (SPIC) of 0.952. The binding signal (ETS2) was 0.917 and the binding signal (ETV3) was 0.971.

For GGAGGA, the binding signal (ELK1) was 0.226, the binding signal (ELK3) was 0.297 and the binding signal (SPIC) was 0.278. It also gave a binding signal (ETS2) of 0.246 and a binding signal (ETV3) of 0.253.

TGTCGT gave a binding signal (ELK1) of 0.971, a binding signal (ELK3) of 0.726 and a binding signal (SPIC) of 0.902. It also gave a binding signal (ETS2) of 0.812 and a binding signal (ETV3) of 0.832.

In the case of CGGGAA, the binding signal (ELK1) is reported as 0.802, the binding signal (ELK3) is reported as 0.741 and the binding signal (SPIC) is reported as 0.835. It also gave a binding signal (ETS2) of 0.755 and a binding signal (ETV3) of 0.783.

Sequence GGTACG has a binding signal (ELK1) of 0.851, a binding signal (ELK3) of 0.782 and a binding signal (SPIC) of 0.965. For the same sequence, the binding signal (ETS2) was 0.847 and the binding signal (ETV3) was 0.795.

GAGGGA showed a binding signal (ELK1) of 0.513, a binding signal (ELK3) of 0.438 and a binding signal (SPIC) of 0.543. For the same sequence, the binding signal (ETS2) was 0.491 and the binding signal (ETV3) was 0.485.

CCTGAG showed a binding signal (ELK1) of 0.853, a binding signal (ELK3) of 0.772 and a binding signal (SPIC) of 0.699. For the same sequence, the binding signal (ETS2) was 0.81 and the binding signal (ETV3) was 0.851.

GCGAGC gave a binding signal (ELK1) of 0.827, a binding signal (ELK3) of 0.946 and a binding signal (SPIC) of 0.814. It also gave a binding signal (ETS2) of 0.875 and a binding signal (ETV3) of 0.927.

Work on GCGGAG yielded a binding signal (ELK1) of 0.265, a binding signal (ELK3) of 0.293 and a binding signal (SPIC) of 0.257. The binding signal (ETS2) was 0.25 and the binding signal (ETV3) was 0.276.

Sequence AGACGC has a binding signal (ELK1) of 0.706, a binding signal (ELK3) of 0.639 and a binding signal (SPIC) of 0.674. The binding signal (ETS2) was 0.696 and the binding signal (ETV3) was 0.704.

Work on ACGGGT yielded a binding signal (ELK1) of 0.893, a binding signal (ELK3) of 0.867 and a binding signal (SPIC) of 0.837. For the same sequence, the binding signal (ETS2) was 0.882 and the binding signal (ETV3) was 0.893.

For AAGCCA, the binding signal (ELK1) was 0.861, the binding signal (ELK3) was 0.878 and the binding signal (SPIC) was 0.869. The binding signal (ETS2) was 0.868 and the binding signal (ETV3) was 0.824.

In the case of AGAGCC, the binding signal (ELK1) is reported as 0.67, the binding signal (ELK3) is reported as 0.776 and the binding signal (SPIC) is reported as 0.723. It also gave a binding signal (ETS2) of 0.65 and a binding signal (ETV3) of 0.724.

In the case of CAGGCA, the binding signal (ELK1) is reported as 0.742, the binding signal (ELK3) is reported as 0.699 and the binding signal (SPIC) is reported as 0.877. For the same sequence, the binding signal (ETS2) was 0.713 and the binding signal (ETV3) was 0.772.

AGCCGT gave a binding signal (ELK1) of 0.497, a binding signal (ELK3) of 0.425 and a binding signal (SPIC) of 0.434. For the same sequence, the binding signal (ETS2) was 0.464 and the binding signal (ETV3) was 0.489.

Work on GCCGTA yielded a binding signal (ELK1) of 0.837, a binding signal (ELK3) of 0.847 and a binding signal (SPIC) of 0.661. For the same sequence, the binding signal (ETS2) was 0.766 and the binding signal (ETV3) was 0.896.
